# Laboratory results taken from PubChem BioAssay AID504444 (National Center for Advancing Translational Sciences (NCATS), 2011).
# Among all 360,000 compounds or so, about 7,500 (2.1%) were called active. Inconclusive means that the source gave no clear call. Such entries were picked first, then a sample of the others. Calls come from the whole dose curve; as a rule, active = well fitted inhibition curve with a large enough effect; inconclusive = small, poorly fitted or top-dose-only effect, or effect the other way; inactive = flat fitted curve, though single readings scatter. Where the call is inconclusive, the potency comes from a doubtful curve fit.
# Test: Nrf2 qHTS screen for inhibitors; note: nearly all actives have a fitted effect of over 60% in size
# Conditions: A549 ARE-Fluc reporter, luciferase luminescence, 18-24 h; activity change, negative = inhibition: at 46 µM (top of the series)
# Method in brief: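 Cells were seeded and rested 2 h, then exposed to compounds for 18-24 h. CellTiter-Fluor was read first as a viability measure. BugLite was added 15 min before the final luminescent read of ARE-luciferase activity in A549 cells.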
# % is set by controls: 0 for no effect and ±100 for the full control effect; potency is the fitted concentration of half-maximal effect.
SMILES,Potency,"activity change, negative = inhibition"
Cc1ccc(NC(=O)CNc2cccc(S(=O)(=O)N3CCOCC3)c2)cc1F,"inconclusive: 25.9 µM [falling, single point]",–
COc1ccc(-c2cc(C(=O)N3CCC3)c3ccccc3n2)cc1OC,–,inactive: 4.69%
COc1ccc(-c2nc(CN3CCN(c4ncnc5ccccc45)CC3)c(C)o2)c(OC)c1,active: 8.2 µM,–
O=C(Nc1ccccc1Cl)c1cc2ccccc2o/c1=N\O,"inconclusive: 23.1 µM [activator, single point]",–
CCOc1ccc2[nH]c(=O)c(CN(Cc3ccco3)Cc3nnnn3Cc3ccccc3)cc2c1,–,inactive: 11.9%
COc1ccc(NC(=O)CSc2nnc(-c3ccco3)n2C)cc1,"inconclusive: 16.4 µM [falling, partial curve, poor fit]",–
O=C(/C=C/c1cccc([N+](=O)[O-])c1)NC(=S)Nc1ccc(CN2CCOCC2)cc1,"inconclusive: 25.9 µM [falling, single point]",–
CCCN(CCC)Cc1c(C(=O)N/N=C/c2ccc(Br)cc2)nnn1-c1nonc1N,active: 16.4 µM,–
C#CCOCCOCCOCCNc1nc(N2CCN(C(=O)CCCCCCCCCCNC(=O)Cn3cc(C[C@@H](C)O)nn3)CC2)nc(N2CCN(C(=O)CCCCCCCCCCNC(=O)Cn3cc(C[C@@H](C)O)nn3)CC2)n1,"inconclusive: 29.1 µM [falling, single point]",–
COc1ccc(-n2nc3cc(C)c(NC(=O)Cc4ccc(Cl)cc4)cc3n2)cc1,–,inactive: 3.58%
CCCCN(CC)C(=O)c1nn(-c2ccc(OC)cc2)c(=O)c2c1c1ccccc1n2C,–,inactive: -8.47%
COc1ccc(OC)c(CNC(=O)c2ccc3c(c2)c(C)c(C)n3C)c1,"inconclusive: 29.1 µM [falling, single point]",–
C/C(=N\Nc1cccc(C(F)(F)F)c1)c1ccc(O)cc1,–,inactive: 0.135%
Cc1ccc(C)c(N2CCN(C(=O)c3cc4c(=O)oc5ccccc5c4s3)CC2)c1,–,inactive: 2.85% [at 9.27 µM]
CCS(=O)(=O)c1oc(-c2ccc(F)cc2)nc1S(=O)(=O)c1ccccc1,"inconclusive: 23.1 µM [falling, single point]",–
O=C(CSc1nc2ncccc2o1)Nc1cccc(C(F)(F)F)c1,"inconclusive: 25.9 µM [activator, single point]",–
Cc1ccc(S(=O)(=O)N2C[C@@H]3[C@H]4CC[C@H](C4)[C@@H]3[C@@H](C)[C@H]2c2ccco2)cc1,active: 20.6 µM,–
CC1CCc2sc(C(=O)N3CCC(C(N)=O)CC3)cc2C1 (configuration not stated),"inconclusive: 1.64 µM [activator, full curve]",–
OC1CCCN(Cc2ccc3c(c2)Cc2ccccc2-3)C1 (configuration not stated),"inconclusive: 18.4 µM [activator, single point]",–
Cc1sc2nc(COC(=O)c3ccc(O)cc3)[nH]c(=O)c2c1C,"inconclusive: 32.6 µM [falling, partial curve, poor fit]",–
CC(=O)N1CC(C)Sc2ccc(S(=O)(=O)NCCc3ccccc3)cc21 (configuration not stated),"inconclusive: 13 µM [falling, partial curve, poor fit]",–

SMILES,Potency,"activity change, negative = inhibition"
O=C(Cc1ccc(S(=O)(=O)N2CCOCC2)s1)N1CCN(S(=O)(=O)c2cccc(F)c2)CC1,"inconclusive: 5.17 µM [falling, full curve, poor fit]",–
CC1=C(C(=O)Nc2cccc(C(=O)NC3CCCCC3C)c2)SCCO1 (configuration not stated),"inconclusive: 14.6 µM [falling, partial curve, poor fit]",–
Cc1nc(SCC(=O)Nc2nsc(-c3ccc(C(C)(C)C)cc3)n2)c2c3c(sc2n1)CCCC3,"inconclusive: 9.2 µM [activator, partial curve]",–
CCN=C1SC(CC(=O)NCCc2ccc(OC)cc2)C(=O)N1CC (configuration not stated),"inconclusive: 1.03 µM [falling, full curve, poor fit]",–
COc1ccc(SCC(=O)Nc2ccc(N3CCN(C)CC3)c(F)c2)cc1,–,inactive: 5.17%
O=C(c1cnc2c(c1)COc1ccc(Cl)cc1-2)c1ccccc1O,"inconclusive: 7.31 µM [falling, partial curve, poor fit]",–
Cc1ccc(C(=O)N[C@H](C(=O)Nc2sccc2C(N)=O)C(C)C)cc1,"inconclusive: 14.6 µM [falling, partial curve, poor fit]",–
O=C(Cc1coc(-c2ccc(F)cc2)n1)Nc1ccccc1,"inconclusive: 18.4 µM [falling, single point]",–
COc1ccc(CNc2cc(C)ccn2)cc1,"inconclusive: 29.1 µM [falling, single point]",–
Cc1ccc(NC2=C(N3CCCCC3)C(=O)c3ccccc3C2=O)cc1,–,inactive: 16.9%
Cc1ccc(NC(=O)c2cccc3c2C(=O)N(C2CCCCC2)C3)cc1,"inconclusive: 9.2 µM [falling, partial curve, poor fit]",–
CC(C)c1ccccc1-n1c(SCc2cc(=O)oc3ccc4ccccc4c23)nnc1-c1cccnc1,"inconclusive: 29.1 µM [falling, single point]",–
COc1ccc(CC(=O)Nc2cccc(SC)c2)cc1OC,active: 2.91 µM,–
Cn1c(=O)c([N+](=O)[O-])c(NC2CCS(=O)(=O)C2)c2ccccc21 (configuration not stated),"inconclusive: 29.1 µM [falling, single point]",–
CCCC(=O)Nc1nc(C)c(-c2csc(Nc3cc(OC)ccc3OC)n2)s1,"inconclusive: 3.26 µM [activator, partial curve, poor fit]",–
CN1CCC(N(C)C(=O)/C=C/c2cn(-c3ccccc3)nc2-c2cccs2)CC1,"inconclusive: 1.64 µM [falling, full curve, poor fit]",–
Cn1c(NCCN2CCOCC2)nc2c1c(=O)n(Cc1cccc(Cl)c1)c(=O)n2C,–,inactive: -20.7%
CC(=O)c1c(C)[nH]c(C(=O)OCn2nnc3ccccc3c2=O)c1C,"inconclusive: 13 µM [falling, partial curve, poor fit]",–
Fc1ccc2nc(Nc3ccccc3)sc2c1,"inconclusive: 5.17 µM [activator, partial curve]",–
COc1ccc(N(CC(=O)NC2CCCCC2)C(=O)c2ccc(C)s2)c(OC)c1,"inconclusive: 32.6 µM [falling, partial curve, poor fit]",–
CC(C)C[C@H](NC(=O)c1[nH]cnc1C(=O)N[C@@H](Cc1ccccc1)C(=O)OC(C)(C)C)C(=O)OC(C)(C)C,"inconclusive: 29.1 µM [falling, single point]",–

# Gathered by group, those above containing a furan ring, fused or not (three)
SMILES,Potency,"activity change, negative = inhibition"
CCOc1ccc2[nH]c(=O)c(CN(Cc3ccco3)Cc3nnnn3Cc3ccccc3)cc2c1,–,inactive: 11.9%
COc1ccc(NC(=O)CSc2nnc(-c3ccco3)n2C)cc1,"inconclusive: 16.4 µM [falling, partial curve, poor fit]",–
Cc1ccc(S(=O)(=O)N2C[C@@H]3[C@H]4CC[C@H](C4)[C@@H]3[C@@H](C)[C@H]2c2ccco2)cc1,active: 20.6 µM,–

# (more compounds)

SMILES,Potency,"activity change, negative = inhibition"
Cc1ccc(NC(=O)c2ccc(NCc3ccco3)c([N+](=O)[O-])c2)cc1Cl,"inconclusive: 14.6 µM [falling, partial curve, poor fit]",–
COC(=O)c1ccc(NC(=O)CCc2c(C)nc3c(c(C)nn3C(C)(C)C)c2C)cc1,"inconclusive: 29.1 µM [falling, single point]",–
NC(=O)c1ccsc1NC(=O)COC(=O)c1cccnc1Cl,"inconclusive: 4.11 µM [activator, full curve, poor fit]",–
CCN(C(=O)CSc1nc(-c2ccccc2)no1)c1ccccc1,"inconclusive: 6.51 µM [activator, partial curve, poor fit]",–
O=C(NC1(C(F)(F)F)NC(=O)N(Cc2ccccc2)C1=O)c1cccs1 (configuration not stated),"inconclusive: 11.6 µM [falling, partial curve, poor fit]",–
O=C(C1=C[C@H](c2csc3ccccc23)C[C@H](OCc2ccc(CO)cc2)O1)N1CCN(Cc2ccc3c(c2)OCO3)CC1,"inconclusive: 16.4 µM [falling, partial curve]",–
CSc1sc(C(=O)NCC2CC2)c(-c2cccs2)c1C#N,"inconclusive: 32.6 µM [falling, partial curve, poor fit]",–
Cc1ccc(CN2C(=O)CSc3ccc(C(=O)NC4CC4)cc32)cc1,"inconclusive: 16.4 µM [falling, partial curve, poor fit]",–
COc1cc(C(=O)Nc2ccc3nc4n(c(=O)c3c2)CCCC4)ccc1Br,"inconclusive: 9.2 µM [falling, partial curve, poor fit]",–
CCN(CC(=O)NCc1ccc(Cl)cc1)C(=O)NCc1ccc(Cl)cc1,"inconclusive: 29.1 µM [falling, single point]",–
O=C(NNC(=O)c1ccccc1OCc1ccc(F)cc1)c1ccccc1O,–,inactive: -11.7%
CN(C)N=Nc1ccc2nc[nH]c2c1,"inconclusive: 2.59 µM [falling, full curve, poor fit]",–
O=C(/C=C/c1ccc(F)cc1)OCC(=O)c1ccc[nH]1,"inconclusive: 10.3 µM [activator, single point]",–
O=C(Nc1ccc(Oc2ccc3ccccc3c2)cc1)c1ccco1,"inconclusive: 25.9 µM [falling, single point]",–
CCOc1ccccc1CNC(=O)c1oc2c(c1C)-c1[nH]ncc1CC2,"inconclusive: 20.6 µM [falling, single point]",–
Cc1cc(C)cc(NC(=O)c2ccc([N+](=O)[O-])o2)c1,"inconclusive: 20.6 µM [activator, single point]",–
CC(=O)NC1=NN(C(C)=O)C(C)(c2ccc(C)o2)S1 (configuration not stated),"inconclusive: 32.6 µM [activator, partial curve, poor fit]",–
COc1cc(SC)ccc1C(=O)Nc1cc(C)ccn1,"inconclusive: 1.03 µM [activator, full curve, poor fit]",–
Cc1ccc(NC(=O)CN(C)CC(=O)NC2CCCc3ccccc32)cc1 (configuration not stated),"inconclusive: 4.61 µM [activator, full curve, poor fit]",–
Cc1csc2c(N3CCN(C(=S)Nc4ccc(F)cc4F)CC3)ncnc12,active: 18.4 µM,–
